Reference: PubChem BioAssay AID248 (DTP/NCI, 2004)
The list is a part of this screen's results and no random one: it is rich in T/C values a quarter to a half above the control, in often repeated tests (any T/C) and in doses without a T/C. Other doses and runs of a compound stand elsewhere. T/C gives the treated animals as a percentage of the vehicle group. Some doses have a count of surviving animals in place of a T/C: the source holds a T/C of zero for them, seemingly a mark for toxic or unscored doses. Some survivor counts are full or nearly so, which does not show that the dose was tolerated: the source hardly ever lists a survival T/C far under the control, and the zero likely stands for such cases as well. Survivors were counted at the toxicity check, usually on the fifth day, unless a day is given; later deaths do not show. Schedule codes are those of the source, read here as Q, the interval in days (D) or hours (H), X, the number of doses. Some schedule codes hold Z or #, which are not explained here. Where survival is the endpoint, this PubChem deposit counts one and a half times the control or more as active, and values a quarter to a half above the control carry no call in these data; other NCI protocols may use other cut-offs. Some T/C values are followed by the survivors on the day toxicity was checked, most often the fifth; without a count, all were alive then.

Tested on: L1210 leukemia ip in BDF1 mice, survival T/C
Assay: NCI In Vivo Anticancer Drug Screen. Data for tumor model L1210 Leukemia (intraperitoneal) in B6D2F1 (BDF1) mice
Conditions: T/C endpoint: mean survival time, higher T/C = longer survival
[1] = dose: 400.0 mg/kg/injection, schedule: Q01DX001 (ip), vehicle: other
[2] = dose: 300.0 mg/kg/injection, schedule: Q01DX001 (ip), vehicle: saline
[3] = dose: 100.0 mg/kg/injection, schedule: Q04DX002 (ip), vehicle: saline with Tween-80
[4] = dose: 200.0 mg/kg/injection, schedule: Q04DX002 (ip), vehicle: saline with Tween-80
[5] = dose: 400.0 mg/kg/injection, schedule: Q04DX002 (ip), vehicle: saline with Tween-80
[6] = dose: 100.0 mg/kg/injection, schedule: Q04DX003 (ip), vehicle: saline
[7] = dose: 200.0 mg/kg/injection, schedule: Q01DX009 (ip), vehicle: saline
[8] = dose: 200.0 mg/kg/injection, schedule: Q04DX003 (ip), vehicle: saline
[9] = dose: 400.0 mg/kg/injection, schedule: Q04DX003 (ip), vehicle: saline
[10] = dose: 400.0 mg/kg/injection, schedule: Q01DX001 (ip), vehicle: saline
[11] = dose: 150.0 mg/kg/injection, schedule: Q01DX001 (ip), vehicle: saline

**Q.** `CS(=O)(=O)OCCN(CCOS(C)(=O)=O)c1ccccc1` was tested. Which survivor count (dose: 200.0 mg/kg/injection, schedule: Q01DX001 (ip), vehicle: other) did it give?
**A.** 1 of 4

**Q.** And the survivor count [1]?
**A.** 0 of 4

**Q.** For `NC(CS(=O)c1ccc(Cl)cc1)C(=O)O` (centres undefined), which survivor count (dose: 400.0 mg/kg/injection, schedule: Q04DX003 (ip), vehicle: saline with Tween-80) is on record?
**A.** 0 of 6

**Q.** How did the survivor count [2] turn out when `Cc1cccc(Cl)c1N=Nc1sc(N)nc1C` was run?
**A.** 0 of 6

**Q.** For `[CH3][Pb]([CH3])([CH3])[O]C(=O)CCl`, which survivor count (dose: 3.13 mg/kg/injection, schedule: Q01DX009 (ip), vehicle: saline with Tween-80) is on record?
**A.** 6 of 6

**Q.** What about the survivor count (dose: 6.25 mg/kg/injection, schedule: Q01DX009 (ip), vehicle: saline with Tween-80) of the same compound?
**A.** 1 of 6

**Q.** What about the survivor count (dose: 25.0 mg/kg/injection, schedule: Q04DX002 (ip), vehicle: saline with Tween-80) of the same compound?
**A.** 0 of 3

**Q.** And the survivor count (dose: 50.0 mg/kg/injection, schedule: Q04DX002 (ip), vehicle: saline with Tween-80)?
**A.** 0 of 3

**Q.** And the survivor count [3]?
**A.** 0 of 3

**Q.** And the survivor count [4]?
**A.** 0 of 3

**Q.** What about the survivor count [5] of the same compound?
**A.** 0 of 3

**Q.** What does the source list for `CC1(C)CCC(NC(=O)NCCF)CC1`?
**A.** survivor count (dose: 75.0 mg/kg/injection, schedule: Q01DX001 (ip), vehicle: other): 0 of 6; survivor count (dose: 150.0 mg/kg/injection, schedule: Q01DX001 (ip), vehicle: other): 0 of 6; survivor count (dose: 300.0 mg/kg/injection, schedule: Q01DX001 (ip), vehicle: other): 0 of 6

**Q.** With `CC(=O)Nc1ccnc(=O)[nH]1` as the compound, how does the survivor count [2] read?
**A.** 1 of 6

**Q.** Which survivor count (dose: 400.0 mg/kg/injection, schedule: Q01DX001 (ip), vehicle: water) does the source give for `CC(=O)c1cc(O)c2ccccc2c1O` here?
**A.** 0 of 6

**Q.** Which T/C (dose: 50.0 mg/kg/injection, schedule: Q01DX009 (ip), vehicle: saline) does the source give for `CC(CN1CC(=O)NC(=O)C1)N1CC(=O)NC(=O)C1.[Cl-].[Pt+4]` (centres undefined) here?
**A.** 137 % of control

**Q.** And the survivor count (dose: 100.0 mg/kg/injection, schedule: Q01DX009 (ip), vehicle: saline)?
**A.** 1 of 6

**Q.** What about the T/C [6] of the same compound?
**A.** 133 % of control [5 of 6 alive]

**Q.** What about the survivor count [7] of the same compound?
**A.** 0 of 6

**Q.** What about the survivor count [8] of the same compound?
**A.** 0 of 6

**Q.** And the survivor count [9]?
**A.** 0 of 6

**Q.** What does the source list for `COc1cc2c(c(OC)c1OC)-c1ccc(OC)c(=O)cc1[C@@H](NC(=O)CCl)CC2`?
**A.** T/C (dose: 0.39 mg/kg/injection, schedule: Q01DX009 (ip), vehicle: saline): 141 % of control; T/C (dose: 0.39 mg/kg/injection, schedule: Q04DX003 (ip), vehicle: saline): 127 % of control; survivor count (dose: 0.5 mg/kg/injection, schedule: Q01DX009 (ip), vehicle: Klucel (hydroxypropylcellulose) (HPC)): 6 of 6; T/C (dose: 0.65 mg/kg/injection, schedule: Q01DX009 (ip), vehicle: saline): 131 % of control; T/C (dose: 0.65 mg/kg/injection, schedule: Q04DX003 (ip), vehicle: saline): 131 % of control; survivor count (dose: 1.0 mg/kg/injection, schedule: Q01DX009 (ip), vehicle: Klucel (hydroxypropylcellulose) (HPC)): 6 of 6; survivor count (dose: 1.08 mg/kg/injection, schedule: Q01DX009 (ip), vehicle: saline): 8 of 8; T/C (dose: 1.08 mg/kg/injection, schedule: Q04DX003 (ip), vehicle: saline): 139 % of control; survivor count (dose: 1.5 mg/kg/injection, schedule: Q01DX009 (ip), vehicle: Klucel (hydroxypropylcellulose) (HPC)): 2 of 6; T/C (dose: 1.8 mg/kg/injection, schedule: Q04DX003 (ip), vehicle: saline): 140 % of control; T/C (dose: 3.0 mg/kg/injection, schedule: Q01DX001 (ip), vehicle: saline): 133 % of control; survivor count (dose: 3.0 mg/kg/injection, schedule: Q01DX009 (ip), vehicle: Klucel (hydroxypropylcellulose) (HPC)): 3 of 6; survivor count (dose: 3.0 mg/kg/injection, schedule: Q04DX003 (ip), vehicle: saline): 7 of 8; T/C (dose: 5.0 mg/kg/injection, schedule: Q01DX001 (ip), vehicle: saline): 130 % of control; survivor count (dose: 6.0 mg/kg/injection, schedule: Q01DX009 (ip), vehicle: Klucel (hydroxypropylcellulose) (HPC)): 0 of 6; T/C (dose: 9.0 mg/kg/injection, schedule: Q01DX001 (ip), vehicle: saline): 126 % of control; survivor count (dose: 12.5 mg/kg/injection, schedule: Q04DX003 (ip), vehicle: Klucel (hydroxypropylcellulose) (HPC)): 1 of 6; survivor count (dose: 25.0 mg/kg/injection, schedule: Q04DX003 (ip), vehicle: Klucel (hydroxypropylcellulose) (HPC)): 0 of 6; survivor count (dose: 50.0 mg/kg/injection, schedule: Q04DX003 (ip), vehicle: Klucel (hydroxypropylcellulose) (HPC)): 0 of 6; survivor count (dose: 100.0 mg/kg/injection, schedule: Q04DX003 (ip), vehicle: Klucel (hydroxypropylcellulose) (HPC)): 0 of 6; survivor count (dose: 200.0 mg/kg/injection, schedule: Q04DX003 (ip), vehicle: Klucel (hydroxypropylcellulose) (HPC)): 0 of 6; survivor count (dose: 400.0 mg/kg/injection, schedule: Q04DX003 (ip), vehicle: Klucel (hydroxypropylcellulose) (HPC)): 0 of 6

**Q.** With `COc1ccc(OC)c(NC(=O)Nc2cccc(C(F)(F)F)c2)c1` as the compound, how does the survivor count (dose: 100.0 mg/kg/injection, schedule: Q01DX009 (ip), vehicle: carboxymethylcellulose (CMC)) read?
**A.** 6 of 6

**Q.** And the survivor count (dose: 200.0 mg/kg/injection, schedule: Q01DX009 (ip), vehicle: carboxymethylcellulose (CMC))?
**A.** 6 of 6

**Q.** What about the survivor count (dose: 400.0 mg/kg/injection, schedule: Q04DX002 (ip), vehicle: carboxymethylcellulose (CMC)) of the same compound?
**A.** 6 of 6

**Q.** And the survivor count (dose: 400.0 mg/kg/injection, schedule: Q04DX003 (ip), vehicle: carboxymethylcellulose (CMC))?
**A.** 6 of 6

**Q.** With `CCOC(=O)C1CCNC(=O)C1=O` (centres undefined) as the compound, how does the survivor count [10] read?
**A.** 1 of 4

**Q.** `O=C([O-])c1ccccc1[S+](c1ccccc1)c1ccccc1` was tested. Which T/C (dose: 37.0 mg/kg/injection, schedule: Q04DX002 (ip), vehicle: saline with Tween-80) did it give?
**A.** 129 % of control

**Q.** And the survivor count (dose: 75.0 mg/kg/injection, schedule: Q04DX002 (ip), vehicle: saline with Tween-80)?
**A.** 2 of 3

**Q.** What about the survivor count (dose: 150.0 mg/kg/injection, schedule: Q04DX002 (ip), vehicle: saline with Tween-80) of the same compound?
**A.** 0 of 3

**Q.** And the survivor count (dose: 300.0 mg/kg/injection, schedule: Q04DX002 (ip), vehicle: saline with Tween-80)?
**A.** 0 of 3

**Q.** With `CCCN=C(C)c1ccccc1O` as the compound, how does the survivor count (dose: 400.0 mg/kg/injection, schedule: Q04DX003 (ip), vehicle: acetone) read?
**A.** 1 of 6

**Q.** `CC(C)=NNC(=O)NO` was tested. Which survivor count [11] did it give?
**A.** 3 of 6

**Q.** And the survivor count [2]?
**A.** 0 of 6

**Q.** Which survivor count [1] does the source give for `Cn1c(=O)c2c(nc(OC3CCCC3)n2C)n(C)c1=O` here?
**A.** 2 of 4

**Q.** `CCN(CC)CCSC(=O)c1ccc([N+](=O)[O-])cc1` was tested. Which survivor count [10] did it give?
**A.** 0 of 4

**Q.** `N/N=C\C=N\N` was tested. Which survivor count (dose: 120.0 mg/kg/injection, schedule: Q01DX Z (ip), vehicle: saline) did it give?
**A.** 0 of 6

**Q.** What does the source list for `CCCCNC(C)(C)CS`?
**A.** survivor count [6]: 3 of 6; survivor count [8]: 0 of 6; survivor count [9]: 0 of 6

**Q.** How did the survivor count (dose: 400.0 mg/kg/injection, schedule: Q01DX009 (ip), vehicle: saline with Tween-80) turn out when `ClCCOC(OCCCl)OCCCl` was run?
**A.** 3 of 6

**Q.** `CCCCCCC[n+]1ccc(C#N)cc1` was tested. Which survivor count [11] did it give?
**A.** 1 of 6

**Q.** And the survivor count [2]?
**A.** 0 of 6

**Q.** How did the survivor count (dose: 75.0 mg/kg/injection, schedule: Q04DX003 (ip), vehicle: saline) turn out when `CC1CCc2ccccc2N1C1=NCCO1` (centres undefined) was run?
**A.** 1 of 6

**Q.** What about the survivor count [11] of the same compound?
**A.** 0 of 6

**Q.** And the survivor count [2]?
**A.** 0 of 6

**Q.** For `CCOP(=S)(S)OCC`, which survivor count [9] is on record?
**A.** 1 of 6

**Q.** How did the survivor count [3] turn out when `O=C1Nc2ccccc2/C1=C/Cl` was run?
**A.** 0 of 3

**Q.** What about the survivor count [4] of the same compound?
**A.** 0 of 3

**Q.** What about the survivor count [5] of the same compound?
**A.** 0 of 3

**Q.** `O=C(O)C1C2CCCCCCC21` (centres undefined) was tested. Which survivor count (dose: 400.0 mg/kg/injection, schedule: Q01DX005 (ip), vehicle: Klucel (hydroxypropylcellulose) (HPC)) did it give?
**A.** 1 of 3

**Q.** `CC(N)C(=O)c1ccccc1` (centres undefined) was tested. Which survivor count [7] did it give?
**A.** 3 of 6
